Measurements reported in PubChem BioAssay AID602196 (INSERM, 2012).
In all, the deposit lists about 23,000 reagents; shown is a random part of them. In the full data, 455 (2%) got an active call. 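Active includes both protection and sensitisation; some change values fall well beyond the stated -50 to +50 range.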 The record does not give: the amount of reagent.

- Test: 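Knock-downs that protect lung cancer cells from cisplatin or sensitise them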
- Cell system: human A549 lung cancer cells
- Reagents: siRNA pair against human genes
- Time to read-out: 48 h transfection before cisplatin; time from cisplatin to read-out not stated
- Challenge: cisplatin at a dose killing half of control-siRNA cells; exact dose and duration not given
- Read-out: 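Shift in cisplatin death relative to control siRNA, from -50 (all cells die) to +50 (no cells die); siRNAs harmful on their own scored 0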
- Reading the numbers: two-siRNA summed score (-2 to +2): higher = both siRNAs protect from cisplatin killing; -2 means both sensitise; mean protection from cisplatin (shift in death) and protection from cisplatin (shift in death), siRNA C and protection from cisplatin (shift in death), siRNA D: higher = protection from cisplatin killing
- Call rule: 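siRNAs harmful alone (LDH or WST-1) get 0; others get +1 for less and -1 for more cisplatin killing; genes are active when the two siRNAs give the same sign, summing to ±2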
- Meaning of the calls: active = both siRNAs shift cisplatin killing the same way; inactive = no consistent shift, or siRNA harmful alone

no.	target gene	two-siRNA summed score (-2 to +2)	mean protection from cisplatin (shift in death) (%)	protection from cisplatin (shift in death), siRNA C (%)	protection from cisplatin (shift in death), siRNA D (%)	outcome
1	CIRBP	0	0.7	-5.1	6.6	inactive
2	GMNN	-1	-23.1	-23.9	-22.4	inactive
3	LOC390511	0	-2.1	2.8	-7	inactive
4	ZCCHC3	0	-5.1	-11.7	1.5	inactive
5	BOP1	0	0.6	-0.6	1.7	inactive
6	HTR1F	1	13.2	16.3	10	inactive
7	ACBD6	0	-4.8	-8.6	-0.9	inactive
8	KRT38	0	-3.6	-1.8	-5.5	inactive
9	LOC147294	0	4.4	2.8	6	inactive
10	OXNAD1	-1	-2.7	-18.5	13	inactive
11	FGB	0	2.8	0.9	4.6	inactive
12	LOC440855	2	17.7	19.7	15.7	active
13	ART5	1	11.2	16.8	5.7	inactive
14	GRIN2A	1	3.7	-4.6	11.9	inactive
15	HSPA6	0	2.9	-3.2	9	inactive
16	LOC442696	0	8.2	7.2	9.1	inactive
17	LOC387823	0	3.5	-3.8	10.8	inactive
18	LOC122867	1	12.8	21.2	4.3	inactive
19	CHRM2	1	6.7	-1.4	14.7	inactive
20	CTNNB1	-1	-1.2	10.1	-12.4	inactive
21	RAE1	0	-6.6	-15.6	2.5	inactive

Next part, starting with the last 2 of the part before.
no.	target gene	two-siRNA summed score (-2 to +2)	mean protection from cisplatin (shift in death) (%)	protection from cisplatin (shift in death), siRNA C (%)	protection from cisplatin (shift in death), siRNA D (%)	outcome
20	CTNNB1	-1	-1.2	10.1	-12.4	inactive
21	RAE1	0	-6.6	-15.6	2.5	inactive
22	MFAP4	0	-4.1	-12.5	4.3	inactive
23	LOC402604	0	-8.2	-8.3	-8	inactive
24	LOC388337	-1	-3.1	-15.1	8.9	inactive
25	LOC388298	1	12.7	-0.9	26.4	inactive
26	AMBN	0	1.8	-4	7.5	inactive
27	PAPPA2	0	8	1.7	14.4	inactive
28	NKAIN2	0	-4.5	-3.3	-5.7	inactive
29	LOC93556	0	12.7	8.3	17	inactive
30	GTF3C2	0	-8.4	-10.1	-6.8	inactive
31	OMD	0	0.2	-1.2	1.6	inactive
32	PPP4R4	-1	-9.1	-13.3	-4.8	inactive
33	LURAP1L	0	-0.3	-0.5	-0.2	inactive
34	HMGB2	1	8.3	15.4	1.1	inactive
35	MEOX1	0	9.5	2.8	16.2	inactive
36	INTS13	0	7.8	9.9	5.8	inactive
37	PIGR	-1	-18	-28.4	-7.6	inactive
38	GOLGA6L2	0	3.4	-2.4	9.2	inactive
39	SKAP1	0	-2.4	-3.7	-1.1	inactive
